Data: patent US20020192827A1, “Novel vector for C. glabrata and the use thereof” (priority 2000, published 2002)
At least one compound was matched to its structure with a doubt left.

Test system: C. glabrata strain ATCC 200989
Test: geneticin resistance growth test on -Ura medium, uninduced and copper-induced
Assay type: cell-based, Candida glabrata
Details: 1 mg/ml geneticin
Description: C. C. glabrata strain with expression plasmid pFPG1 lacking or carrying the wildtype neomycin/kanamycin resistance gene (which confers resistance to the antibiotic geneticin), on -Ura media supplemented with 1 mg/ml geneticin.
C. C. glabrata strain with expression plasmid pFPG2 lacking or carrying the wildtype neomycin/kanamycin resistance gene (which confers resistance to the antibiotic geneticin), on -Ura media supplemented with 1 mg/ml geneticin.
The neomycin/kanamycin resistance gene from Tn903 confers resistance of C. glabrata to the antibiotic G418, geneticin (Cormack and Falkow, 1999). The pFPG1-NEO plasmid and empty pFPG1 as a control were transformed into C. glabrata strain ATCC 200989 and tested for geneticin resistance under uninduced and induced conditions (FIG. 3C). […] In this case, induction of the MT-1 promoter in pFPG1 was not absolutely necessary to obtain adequate expression of the NEO gene.
The NEO pFPG2 plasmid and empty pFPG2 as a control were transformed into C. glabrata strain ATCC 200989 and tested for geneticin resistance on -Ura medium under uninduced and induced conditions (FIG. 6).

## CN[C@@H]1[C@@H](O)[C@@H](O[C@@H]2[C@@H](O)[C@H](O[C@H]3O[C@H]([C@@H](C)O)[C@@H](O)[C@H](O)[C@H]3N)[C@@H](N)C[C@H]2N)OC[C@]1(C)O [geneticin]
Strain carrying NEO pFPG2, induced
  growth in the presence of geneticin: grew well
Strain carrying NEO pFPG2, uninduced
  growth in the presence of geneticin: failed to grow
Strain carrying empty pFPG1, uninduced or induced
  growth in the presence of geneticin: failed to grow
Strain carrying empty pFPG2, uninduced or induced
  growth in the presence of geneticin: failed to grow
Strain carrying pFPG1-NEO, induced
  growth in the presence of geneticin: well
Strain carrying pFPG1-NEO, uninduced
  growth in the presence of geneticin: grew moderately well
